# Data reported in patent publication US6988446B2, “Purified nitric oxide synthase” (priority 1996, dated 2006).
# The chains behind the UniProt entries cited, without tags or fusion partners.
# UniProt P29476, whole entry: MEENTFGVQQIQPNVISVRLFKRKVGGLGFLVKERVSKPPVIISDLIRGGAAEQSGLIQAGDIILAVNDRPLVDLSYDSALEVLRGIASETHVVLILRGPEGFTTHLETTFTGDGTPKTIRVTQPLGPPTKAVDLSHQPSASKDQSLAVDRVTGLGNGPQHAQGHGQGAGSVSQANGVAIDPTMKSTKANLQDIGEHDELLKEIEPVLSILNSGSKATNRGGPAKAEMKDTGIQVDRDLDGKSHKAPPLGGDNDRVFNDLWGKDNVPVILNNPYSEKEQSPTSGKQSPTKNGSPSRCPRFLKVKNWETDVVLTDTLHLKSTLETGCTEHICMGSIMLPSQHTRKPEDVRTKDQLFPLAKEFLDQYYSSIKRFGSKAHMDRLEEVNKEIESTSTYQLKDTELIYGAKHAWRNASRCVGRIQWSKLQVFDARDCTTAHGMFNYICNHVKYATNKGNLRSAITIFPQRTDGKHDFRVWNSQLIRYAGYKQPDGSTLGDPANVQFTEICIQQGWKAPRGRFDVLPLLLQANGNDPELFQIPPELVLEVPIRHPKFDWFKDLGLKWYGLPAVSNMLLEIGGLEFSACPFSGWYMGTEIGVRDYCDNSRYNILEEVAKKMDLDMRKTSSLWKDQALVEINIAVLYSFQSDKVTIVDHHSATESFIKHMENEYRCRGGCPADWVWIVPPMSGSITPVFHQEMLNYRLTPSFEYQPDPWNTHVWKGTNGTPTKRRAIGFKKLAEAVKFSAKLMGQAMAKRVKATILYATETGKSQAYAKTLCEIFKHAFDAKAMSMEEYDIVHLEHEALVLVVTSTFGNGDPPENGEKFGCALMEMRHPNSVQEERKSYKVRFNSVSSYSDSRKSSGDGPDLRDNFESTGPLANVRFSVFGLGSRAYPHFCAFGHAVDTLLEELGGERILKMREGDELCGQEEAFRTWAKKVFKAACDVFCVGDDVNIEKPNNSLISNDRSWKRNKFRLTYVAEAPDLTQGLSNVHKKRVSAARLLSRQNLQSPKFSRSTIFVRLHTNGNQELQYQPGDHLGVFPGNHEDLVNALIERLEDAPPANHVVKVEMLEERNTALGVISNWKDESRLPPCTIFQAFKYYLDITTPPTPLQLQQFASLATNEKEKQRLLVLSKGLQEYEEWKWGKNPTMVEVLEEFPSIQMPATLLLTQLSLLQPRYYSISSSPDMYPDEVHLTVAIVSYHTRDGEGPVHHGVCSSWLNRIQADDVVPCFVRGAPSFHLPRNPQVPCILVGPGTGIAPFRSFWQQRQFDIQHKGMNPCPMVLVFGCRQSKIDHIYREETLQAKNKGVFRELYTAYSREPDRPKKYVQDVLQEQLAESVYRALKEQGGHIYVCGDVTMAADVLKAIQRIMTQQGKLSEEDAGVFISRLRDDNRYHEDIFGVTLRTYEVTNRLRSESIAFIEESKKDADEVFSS
# At least one compound was matched to its structure with a doubt left. No end group written: not given here.
# Tests used:
# [1] = biological target: T1, nNOS-II (Rattus norvegicus, UniProt P29476); assay: Kinetic determinations (KM, Vmax, Ki) with the standard enzyme assay; type: biochemical; settings: substrate of nNOS-II; calmodulin added when L-arginine is substrate
# Procedure: (§1) NOS Activity Assay: NOS activity was determined spectrophotometrically by the rapid and quantitative oxidation of oxyhemoglobin to methemoglobin (Feelish et al., Eur. J. Pharmacol. 139:19-30 (1987); Olken et al., Biochem. Biophys. Res. Commun. 177:828-833 (1991)).
# (§2) Thus, reaction mixtures for NOS assays containing 50 mM Tris-HCl buffer (pH 7.5), were optimized to contain 4 μM oxyhemoglobin, 100 μM NADPH, 1 mM CaCl2, 10 μM FAD, 10 μM FMN, 20 μM BH4, 150 μM DTT, 100 μM BK or L-arginine and 0.1-3 μg enzyme in a final volume of 0.5 mL.
# (§3) Thus, calmodulin (10 μg/mL) was added to the reaction mixtures when L-arginine was used as substrate.
# Kinetic data were calculated by fitting experimental data to the EZ-FIT program (Perrella, Anal. Biochem. 174.437-447 (1988)).
# (§4) NOS activity assay. NOS activity was determined spectrophotometrically by the rapid and quantitative oxidation of oxyhemoglobin to methemoglobin (10,11). Optimized reaction mixtures for NOS assays contained 50 mM Tris-HCl buffer (pH 7.5), and were optimized to contain 4 μM oxyhemoglobin, 100 μM NADPH, 1 mM CaCl2, 10 μM FAD, 10 μM FMN, 20 μM BH. 150 μM DTT, 100 μM BK or L-arginine and 0.1-3 μg enzyme in a final volume of 0.5 ml. Calmodulin (10 μg/ml) was added to the reaction mixtures when L-arginine was used as substrate.
# Kinetic determinations. […] Kinetic data were calculated by fitting experimental data to EZ-FIT program (12).
# [2] = biological target: T1, nNOS-II; assay: Standard NOS enzyme assay (oxyhemoglobin to methemoglobin), peptides as substrates, initial velocity; type: biochemical; settings: text of Example 2; comparator (arginine or BK)
# Procedure: as §1, §2, §3, §4
sequence,measurement,setting,value
RPPGFSPFR [BK],apparent Vmax,[1],1.2 μmol/min/mg protein
same,relative activity as substrate for nNOS-II (in words),[2],more activity than arginine
